Article doi:10.1101/2023.06.17.545410 (bioRxiv, 2023)
No constants are given. Whether binding was seen depends on the method and setting. For part of these data: In cells and extracts the contact can be indirect. Some binding calls cover weakened binding; strength is not graded here. For part of these data: Tags and fused reporters may be left off the sequences shown. Each block holds one binder with its values, some of them ahead of it.

How the values were obtained:
[1] = molecular target: T1, MmTHUMPD2 (purified) (mouse) (UniProt Q9CZB3); assay: SEC
T1 sequence: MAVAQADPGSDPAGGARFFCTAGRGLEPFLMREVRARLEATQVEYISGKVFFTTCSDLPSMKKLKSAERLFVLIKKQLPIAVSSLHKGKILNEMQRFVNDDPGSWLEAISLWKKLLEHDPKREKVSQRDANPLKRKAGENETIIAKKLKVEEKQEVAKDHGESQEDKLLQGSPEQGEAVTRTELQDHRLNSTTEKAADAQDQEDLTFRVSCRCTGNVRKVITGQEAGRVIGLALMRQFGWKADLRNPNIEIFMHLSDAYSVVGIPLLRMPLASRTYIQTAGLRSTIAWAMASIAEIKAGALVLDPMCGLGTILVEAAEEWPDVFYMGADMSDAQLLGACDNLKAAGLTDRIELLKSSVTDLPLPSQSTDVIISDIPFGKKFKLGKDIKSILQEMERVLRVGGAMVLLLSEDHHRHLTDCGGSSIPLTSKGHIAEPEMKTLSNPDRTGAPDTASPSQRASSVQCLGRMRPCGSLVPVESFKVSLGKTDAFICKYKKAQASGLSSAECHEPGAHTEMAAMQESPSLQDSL

[2] = molecular target: T2, DrTHUMPD2 (purified) (zebrafish); assay: SEC
T2 sequence: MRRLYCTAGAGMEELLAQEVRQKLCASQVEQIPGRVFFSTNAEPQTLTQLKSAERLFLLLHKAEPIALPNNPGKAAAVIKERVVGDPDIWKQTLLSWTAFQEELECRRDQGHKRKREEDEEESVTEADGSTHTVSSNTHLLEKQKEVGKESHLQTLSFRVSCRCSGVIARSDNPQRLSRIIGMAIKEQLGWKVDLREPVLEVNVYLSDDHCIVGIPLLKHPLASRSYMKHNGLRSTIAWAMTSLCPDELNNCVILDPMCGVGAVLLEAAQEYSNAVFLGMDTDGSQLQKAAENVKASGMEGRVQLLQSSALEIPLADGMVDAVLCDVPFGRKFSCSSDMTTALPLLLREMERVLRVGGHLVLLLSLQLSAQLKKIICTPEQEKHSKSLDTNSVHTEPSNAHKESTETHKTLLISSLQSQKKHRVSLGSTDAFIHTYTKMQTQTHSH

[3] = molecular target: T3, HsTHUMPD2-HA (human THUMP domain containing protein 2 with a C-terminal HA-tag) (human) (UniProt Q9BTF0); assay: co-IP
T3 sequence: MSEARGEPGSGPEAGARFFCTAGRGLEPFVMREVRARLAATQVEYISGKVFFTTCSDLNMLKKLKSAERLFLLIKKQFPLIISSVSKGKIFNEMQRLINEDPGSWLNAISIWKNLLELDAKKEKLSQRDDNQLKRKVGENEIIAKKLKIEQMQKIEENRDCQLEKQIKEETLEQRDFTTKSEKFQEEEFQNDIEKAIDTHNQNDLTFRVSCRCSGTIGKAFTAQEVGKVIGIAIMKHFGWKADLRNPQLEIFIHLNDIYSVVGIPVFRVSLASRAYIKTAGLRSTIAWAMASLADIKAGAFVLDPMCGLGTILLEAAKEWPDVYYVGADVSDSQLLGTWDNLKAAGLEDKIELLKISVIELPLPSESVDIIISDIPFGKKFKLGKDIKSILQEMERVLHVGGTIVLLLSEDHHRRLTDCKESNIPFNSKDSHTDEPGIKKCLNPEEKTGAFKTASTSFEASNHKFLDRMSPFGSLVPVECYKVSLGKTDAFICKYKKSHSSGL

- binding [1]: binds
B1: MmTRMT112 (purified) (protein, UniProt Q9DCG9 1-125)
chain: MKLLTHNLLSSHVRGVGTRGFPLRLQATEVRINPVEFNPEFVARMIPKVEWAALVQAADTLNLAEVPKEPTEGYEHDETFLRKMHHVLLEVDVLEGTLQCPESGRLFPISRGIPNMLLNDEETET

- binding [2]: binds
B2: DrTRMT112 (purified) (protein, UniProt Q503F3 1-122)
chain: MKLLTHNMLTSHVKGVTKGYPLIIKATEVKVNELDFNAQFVSRMIPKLEWPALVQAAEWLGQSQELPDTLIPDYENDEEFLRKVHRVLLEVEVIEGCLQCPESGREFPISKGVPNMLLNEGE

- binding [3]: binds
B3: HsTRMT112 (purified) (natural protein, human, UniProt Q9UI30-1 1-125, looked up)
chain: MKLLTHNLLSSHVRGVGSRGFPLRLQATEVRICPVEFNPNFVARMIPKVEWSAFLEAADNLRLIQVPKGPVEGYEENEEFLRTMHHLLLEVEVIEGTLQCPESGRMFPISRGIPNMLLSEEETES
